Source: patent US20160031942A1 (LONDON HEALTH SCIENCES CENTRE RESEARCH, published 2016)
These are yes or no findings as the source states them, for the method shown. Sequences can lack the tags named with a protein.

T1: Recombinant protein RHAMM-CT (truncated RHAMM, carboxy terminus containing the HA binding domain, amino acids 706-766) (Mus musculus (Mouse)) (UniProt Q00547)
T1 sequence: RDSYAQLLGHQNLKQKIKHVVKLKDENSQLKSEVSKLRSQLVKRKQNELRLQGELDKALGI


Molecular target: T1, Recombinant protein RHAMM-CT (truncated RHAMM, carboxy terminus containing the HA binding domain, amino acids 706-766) (Mus musculus (Mouse))
Assay: SPR screening (ProteON XPR36), RHAMM immobilised, peptide injected

| binding | Binder |
| --- | --- |
| no binding (tested: 10 µM) | IDSYEDEDEGEE [SEQ ID NO 4 (tubulin-derived peptide containing the DEXEEZ motif)] |
| no binding (tested: 10 µM) | GEFEEEEGEDEA [SEQ ID NO 10 (tubulin-derived peptide containing the EEXEDZ motif)] |
| no binding (tested: 10 µM) | DSADGEDEGEEY [SEQ ID NO 2 (tubulin-derived peptide containing the DEXEEZ motif)] |
